This is one part of the list. Further columns of the screen follow, without active or inactive calls. The list favours compounds with an active or inconclusive main result. Words in brackets tell the shape of the fitted curve; partial curves, single points and poor fits give uncertain potencies.
Experiment: qHTS Assay to Find Inhibitors of Chronic Active B-Cell Receptor Signaling
Conditions: ABC-DLBCL IkBa-CBG/CBR reporter, luminescence ratio (green luciferase fused to IkBa over red control in TMD8 lymphoma cells), 4 h
Outline: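 Cell line TMD8 (human ABC DLBCL), stably expressing tet-inducible CBG68-IkBa fusion and CBR; IMDM/0.5% FBS; cpd up to 46 uM; dox induction, 4 h, 37C/5% CO2; dual luminescence; green/red ratio; MG132 control.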

[1] = measured here: CBR red luminescence, cell number
[2] = measured here: IkBa-CBG green luminescence

Row | Structure (SMILES) | AC50 [1] | AC50 [2]
1 | Cc1sc2ncnc(N3CCC(C(=O)N(C)CC(=O)Nc4ccc(Cl)c(C(F)(F)F)c4)CC3)c2c1C | 29.1 µM [falling, single point] | 
2 | CCOC(=O)C(=Cc1ccc(-n2ccnc2)cc1)C(=O)OCC | 11.2 µM [falling, partial curve, poor fit] | 15.8 µM [rising, single point]
3 | COc1ccccc1NS(=O)(=O)c1cccc(C(=O)OCC(=O)Nc2cc(C)on2)c1 | 11.2 µM [falling, partial curve, poor fit] | 
4 | Cc1cc(S(=O)(=O)NC[C@H]2O[C@@H](n3cnc4c(N)ncnc43)[C@H](O)[C@@H]2O)c(C)s1 | 0.651 µM [rising, partial curve] | 
5 | Cc1nn(-c2ccccc2)c2c1C(c1ccco1)C(C#N)=C(N)O2 (configuration not stated) | 11.2 µM [falling, partial curve] | 
6 | Cc1nc(-c2coc3cc(O)c(C)cc3c2=O)cs1 | 2.06 µM [falling, partial curve, poor fit] | 
7 | CCOC(=O)c1sc(=NC(=O)COc2ccc(Cl)cc2)n(C)c1C | 35.5 µM [falling, partial curve, poor fit] | 
8 | CCOc1ccc(Nc2cc(C)nc3nc(C)nn23)cc1 | 23.1 µM [falling, partial curve, poor fit] | 
9 | Cc1ccc(/C=N/Nc2ccc(Cl)nn2)cc1 | 0.355 µM [rising, full curve, poor fit] | 
10 | Cc1cccnc1NC(=O)c1ccc(S(=O)(=O)N2CCCCCC2)cc1 | 0.517 µM [falling, partial curve, poor fit] | 
11 | COc1ccc2cc(C3CC(c4cccs4)=NN3S(C)(=O)=O)c(Cl)nc2c1 (configuration not stated) | 23.1 µM [falling, single point] | 23.1 µM [falling, partial curve, poor fit]
12 | CC(C)CC(CC(C)C)=NNC(=O)c1ccc2c(c1)OCO2 | 15.8 µM [falling, partial curve, poor fit] | 
13 | COc1ccc(OC)c(-c2csc(NC(=O)Cc3ccc(F)cc3)n2)c1 | 2.82 µM [rising, partial curve, poor fit] | 
14 | CCc1noc(C)c1C(=O)Nc1cccc(S(=O)(=O)N(C)c2ccccc2)c1 | 29.1 µM [falling, single point] | 
15 | O=C(c1ccc(Br)o1)N1CC=C(c2ccccc2)CC1 | 1.46 µM [rising, full curve, poor fit] | 
16 | Nc1ccccc1N=c1ssnc1Cl | 35.5 µM [falling, partial curve, poor fit] | 
17 | O=C(COC(=O)CCc1ccc(S(=O)(=O)N2CCOCC2)cc1)NCc1ccc(Cl)cc1 | 2.82 µM [rising, full curve, poor fit] | 
18 | CCOC(=O)c1c(CSc2cccs2)n(C)c2cc(Br)c(O)c(CN(C)C)c12 | 35.5 µM [falling, single point] | 
19 | C(=N\Nc1nc2ccccc2[nH]1)/c1ccccc1 | 14.1 µM [falling, single point] | 
20 | O=C(Nc1sc2c(c1C(=O)NCCCO)CCCC2)c1ccccc1 | 3.98 µM [falling, partial curve] | 
21 | Cc1cc(=O)oc2cc(NC(=O)C(C)Oc3cccc(Cl)c3)ccc12 (configuration not stated) | 11.6 µM [rising, single point] | 

Row | Structure (SMILES) | AC50 [1] | AC50 [2]
22 | CCN(CC)S(=O)(=O)c1ccc(OC)c(NC(=O)Cc2cccs2)c1 | 15.8 µM [rising, single point] | 
23 | CCOc1ccc(-c2cc(CCCC(=O)N3CCN(c4ccc(OC)cc4)CC3)no2)cc1 | 4.61 µM [falling, full curve] | 
24 | Cc1cccc(-n2nnnc2S(C)(=O)=O)c1 | 1.58 µM [falling, full curve] | 1.41 µM [rising, full curve, poor fit]
25 | COc1ccc(NC(=O)c2ccc(COc3ccccc3OC)o2)cc1OC | 5.62 µM [falling, partial curve, poor fit] | 
26 | COC(=O)c1ccccc1OCC(=O)NC1CCCCC1 | 4.11 µM [rising, single point] | 
27 | N#CC1=C(N)N(c2ccccc2)C(=O)C1 | 5.17 µM [rising, full curve, poor fit] | 
28 | COc1ccc(N2CCN(C(=O)c3c(C)nn(-c4ccccc4)c3C)CC2)cc1 | 1.64 µM [rising, full curve, poor fit] | 
29 | CC(C)(C)N=Cc1cc(-c2ccccc2)sc1O | 11.6 µM [rising, partial curve, poor fit] | 
30 | C[C@H]1C[C@@H]2[C@H]([C@@H](O)C[C@@]3(C)[C@H]2CC[C@]3(O)C(=O)CO)[C@@]2(C)C=CC(=O)C=C12 | 0.00461 µM [rising, full curve, poor fit] | 23.1 µM [falling, partial curve]
31 | COc1ccc(Nc2ccc(S(=O)(=O)N3CCCCC3)cc2[N+](=O)[O-])cc1Cl | 3.26 µM [rising, partial curve, poor fit] | 
32 | CCC(=O)Nc1ccc(C(=O)OCC(=O)c2ccc(C)c([N+](=O)[O-])c2)cc1 | 5.62 µM [rising, single point] | 
33 | CCN(CC)C(=O)C1CCCN(c2ncnc3c2cnn3-c2ccc(Cl)cc2)C1 (configuration not stated) | 12.6 µM [falling, partial curve, poor fit] | 
34 | COc1ccc(-c2nnc(SCCc3ccccc3)n2N)cc1 | 4.11 µM [rising, single point] | 
35 | Cc1cc(Nc2ncc(Cl)cc2Cl)n[nH]1 | 9.2 µM [rising, partial curve] | 
36 | CCOc1cccc2sc(NC(=O)CCS(=O)(=O)c3ccccc3)nc12 | 8.91 µM [falling, partial curve] | 
37 | O=C(COC(=O)CNC(=O)C12CC3CC(CC(C3)C1)C2)NC1CCS(=O)(=O)C1 (configuration not stated) | 6.51 µM [rising, partial curve, poor fit] | 
38 | Cc1nc(NS(=O)(=O)c2ccccc2)sc1C(=O)N/N=C/c1ccccc1 | 10 µM [falling, partial curve, poor fit] | 
39 | COc1cc(/C=N/N2CCCCC2)cc(OC)c1O | 35.5 µM [rising, partial curve, poor fit] | 
40 | COC(=O)c1sccc1NC(=O)CSc1ccccc1NS(=O)(=O)c1ccccc1Cl | 14.6 µM [falling, single point] | 
41 | Cn1nnnc1Sc1ncnc2scc(-c3cccc(C(F)(F)F)c3)c12 | 5.17 µM [falling, partial curve] | 
42 | O=C(N/N=C/c1ccc(Br)o1)c1cc([N+](=O)[O-])cc([N+](=O)[O-])c1 | 0.708 µM [rising, full curve, poor fit] | 

Row | Structure (SMILES) | AC50 [1] | AC50 [2]
43 | Cc1ccc(CC(=O)NCc2ccc(F)cc2)cc1 | 0.891 µM [rising, full curve] | 
44 | COc1ccc(OC)c(C(c2c(C)[nH][nH]c2=O)c2c(C)[nH][nH]c2=O)c1 | 2 µM [falling, full curve, poor fit] | 
45 | CCOC(=O)c1c(NC(NC(C)=O)C(Cl)(Cl)Cl)sc(C(C)=O)c1C (configuration not stated) | 6.31 µM [falling, partial curve, poor fit] | 
46 | Nc1nc(-c2ccco2)c(-c2ccco2)s1 | 3.55 µM [falling, partial curve] | 
47 | NC(=O)c1c(NC(=O)c2cc3ccccc3o2)sc2c1CCC2 | 1.58 µM [falling, full curve, poor fit] | 
48 | CC1(C)CC(=O)C=C(c2cccc(CO)c2)C1 | 0.82 µM [rising, full curve, poor fit] | 
49 | Cc1ccc(S(=O)(=O)c2ccc(Cl)cc2)cc1S(=O)(=O)N1CCN(C)CC1 | 1.84 µM [rising, single point] | 
50 | CC(=O)c1sc(-c2cccc(Cl)c2)nc1C | 12.6 µM [rising, single point] | 
51 | Cc1ccnc(NC(=O)Cc2ccc(-c3ccccc3)cc2)c1 | 35.5 µM [falling, single point] | 
52 | CCOC(=O)COc1ccc2ccccc2c1/C=C/[N+](=O)[O-] |  | 6.51 µM [falling, single point]
53 | O=C(NCc1ccccn1)Nc1ccccc1F | 20 µM [falling, partial curve, poor fit] | 
54 | COc1ccc(CCN(C)C(=O)CCNC(=O)c2ccc(Br)cc2)cc1OC | 5.62 µM [rising, single point] | 
55 | O=c1cccc2c1c1cc[nH]c3ccc(=O)n2c31 | 0.411 µM [falling, partial curve, poor fit] | 23.1 µM [rising, partial curve, poor fit]
56 | CCOc1ccc(-n2c(=O)c3ccccc3c3ccccc3c2=O)cc1 | 3.16 µM [falling, partial curve, poor fit] | 
57 | C/C(=N\NC(=O)c1ccccc1[N+](=O)[O-])c1c(O)cc(C)oc1=O | 2.06 µM [falling, full curve] | 
58 | CCCCCC(=O)Nc1ccc(N2CCN(S(C)(=O)=O)CC2)cc1 | 7.31 µM [falling, single point] | 
59 | Cc1nc2ccc(NC(=O)c3ccc(S(=O)(=O)N(C)c4ccccc4)cc3)cc2s1 | 20.6 µM [falling, single point] | 
60 | CC(=O)Nc1ccc(NC(=O)c2c(C)nn(Cc3ccccc3)c2Cl)cc1 | 3.16 µM [rising, partial curve, poor fit] | 
61 | Cc1cc2c(ccc3c2no[n+]3[O-])nn1 | 35.5 µM [rising, partial curve, poor fit] | 
62 | COc1ccc(-c2cc(C(=O)N3CCN(c4ccccc4)CC3)no2)cc1 | 12.6 µM [falling, partial curve] | 

Look-ups from the list:
Value of CCOC(=O)c1c(NC(NC(C)=O)C(Cl)(Cl)Cl)sc(C(C)=O)c1C (configuration not stated) under AC50 [1]: 6.31 µM [falling, partial curve, poor fit]
Value of CCOc1ccc(-n2c(=O)c3ccccc3c3ccccc3c2=O)cc1 under AC50 [1]: 3.16 µM [falling, partial curve, poor fit]

From PubChem BioAssay AID493014 (National Center for Advancing Translational Sciences (NCATS), 2011)
